# The supplement of paper PMC10735217
# Counter-ions that a name gives are not always drawn. Some of the results follow. This data set is noisy: repeats of one test often differ as much as different tests do.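 The human kidney-derived cells carry a stably integrated construct of eight TEAD-binding elements driving luciferase, read by luminescence in a drug-repurposing library screen. A compound counts as a hit when its signal is more than five robust Z scores above the plate mean.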
# Tested on: HEK293A TEAD-LUC reporter
# Experiment: TEAD-luciferase reporter activity (YAP activation), robust Z score vs plate; higher = stronger YAP/TEAD activation
# Settings: 24 h
Compound,TEAD-luciferase reporter activity (compound concentration: 200 nM),TEAD-luciferase reporter activity (compound concentration: 10 uM),TEAD-luciferase reporter activity (compound concentration: 2 uM)
O=C(O)c1ccc([C@@H]2C[C@H]2c2ccc(OCc3c(-c4c(Cl)cccc4Cl)noc3C3CC3)cc2Cl)cc1,inactive: -0.835,inactive: -0.179,–
Cc1ccccc1N1CCN(C2CCc3ccccc3C2)CC1 (stereo not given),inactive: -0.578,inactive: -0.519,inactive: 0.171
CCCC(=O)NCCCCNC(=O)CCC,inactive: -0.977,inactive: 0.717,inactive: -0.813
CC(=O)NC[C@H]1CN(c2ccc(-c3ncc(C#N)s3)c(F)c2)C(=O)O1,inactive: -0.508,active: 6.17,inactive: 4.17
CC(C)(CO)NCC(=O)N1C[C@@H](F)C[C@H]1C(=O)c1nnc(C(C)(C)C)o1,inactive: -1.85,inactive: -0.366,inactive: -0.615
CC(C(=O)O)c1ccc2c(c1)CC(=O)c1ccccc1S2 (stereo not given) [zaltoprofen],inactive: -1.38,inactive: 2.07,inactive: -1.55
O=C1NC2(CCN(CC3CC3)CC2)Oc2ccccc21,inactive: -0.622,inactive: 3.26,–
CCCCC1C(=O)N(CC2CCNCC2)CC2N(C(=O)CCc3c[nH]c4ccccc34)CCC(=O)N12 (stereo not given),inactive: -0.675,inactive: 4.79,inactive: -0.556
O=c1cc(-c2ccccc2)n(-c2ccccc2)n1CCCN1CCN(c2ccccn2)CC1 [revenast],inactive: 1.76,inactive: -0.135,inactive: 0.46
CC(C)(C)N1CCC(c2ccccc2)(c2ccccc2)CC1 [Budipine hydrochloride],inactive: -1.18,inactive: 1.17,inactive: -0.106
CCOc1nc2cccc(C(=O)O)c2n1Cc1ccc(-c2ccccc2-c2nnn[nH]2)cc1 [Candesartan],inactive: -1.34,inactive: 0.914,–
CCOc1nc2cccc(C(=O)O)c2n1Cc1ccc(-c2ccccc2-c2nnn[nH]2)cc1 [Pharmaprojects No. 3549],–,–,inactive: -2
CC[C@H](C)[C@H](NC(=O)[C@H](Cc1ccccc1)NC(=O)[C@H](CCC(=O)O)NC(=O)[C@H](CCCCN)NC(=O)[C@H](C)NC(=O)[C@H](C)NC(=O)[C@H](CCC(N)=O)NC(=O)CNC(=O)[C@H](CCC(=O)O)NC(=O)[C@H](CC(C)C)NC(=O)[C@H](Cc1ccc(O)cc1)NC(=O)[C@H](CO)NC(=O)[C@H](CO)NC(=O)[C@@H](NC(=O)[C@H](CC(=O)O)NC(=O)[C@H](CO)NC(=O)[C@@H](NC(=O)[C@H](Cc1ccccc1)NC(=O)[C@@H](NC(=O)CNC(=O)[C@H](CCC(=O)O)NC(=O)[C@H](C)NC(=O)[C@@H](N)Cc1c[nH]cn1)[C@@H](C)O)[C@@H](C)O)C(C)C)C(=O)N[C@@H](C)C(=O)N[C@@H](Cc1c[nH]c2ccccc12)C(=O)N[C@@H](CC(C)C)C(=O)N[C@H](C(=O)N[C@@H](CCCCN)C(=O)NCC(=O)N[C@@H](CCCNC(=N)N)C(=O)NCC(=O)O)C(C)C,inactive: -0.844,inactive: 0.893,inactive: -0.877
Cc1nc(C)c(N(C)C)nc1C,inactive: -1.39,inactive: 0.448,inactive: 0.238
COc1ccc2c(c1)c(OC(C)C)c(C(=O)Nc1nnn[nH]1)n2-c1ccccc1,inactive: -1.92,inactive: 0.263,inactive: -1.52
CSCC[C@H](N)C(=O)O [Methionine],inactive: -0.761,inactive: -1.38,inactive: -0.0272
NC(N)=NS(=O)(=O)c1ccc(N)cc1,inactive: -1.5,inactive: 0.63,inactive: -1.75
CC(C)CC(NC(=O)C(CCC(N)=O)NC(=O)C(CC(C)C)NC(=O)C(Cc1c[nH]c2ccccc12)NC(=O)C(Cc1cnc[nH]1)NC(=O)C(N)Cc1c[nH]c2ccccc12)C(=O)O (stereo not given),inactive: -0.475,inactive: 1.38,inactive: -0.422
N=C(N)c1ccc(CNC(=O)[C@@H]2CCN2C(=O)[C@H](NCC(=O)O)C2CCCCC2)cc1 [melagatran],inactive: 0.241,inactive: -1.93,inactive: 1.37
CCNC(=O)[C@@H]1CCCN1C(=O)[C@H](CCCNC(=N)N)NC(=O)[C@H](CC(C)C)NC(=O)[C@H](NC(=O)[C@H](Cc1ccc(O)cc1)NC(=O)[C@H](CO)NC(=O)[C@H](Cc1c[nH]c2ccccc12)NC(=O)[C@H](Cc1c[nH]cn1)NC(=O)[C@@H]1CCC(=O)N1)C(C)(C)C [Lecirelin],inactive: 3.76,inactive: -1.19,inactive: -1.28
CC(C)[C@@H]1C(=O)N(S(C)(=O)=O)[C@@H]2CCN(C(=O)/C=C/CN3CCCCC3)[C@H]21,inactive: 0.0764,inactive: -1.64,inactive: -1.09
CCc1ccc2c(-c3cncc(C)c3)cc(COC)nn12,inactive: -0.233,inactive: -0.278,–
CN1CCC(CNc2ccc3ncc(-c4cccc(OC(F)(F)F)c4)n3n2)CC1,inactive: -0.923,inactive: -0.415,inactive: -1.53
CC1CC=NN1C(=O)c1cccnc1 (stereo not given),inactive: -0.431,inactive: -0.174,inactive: -0.31
N#CCC(=O)NN,inactive: -0.477,inactive: -1.39,inactive: -1.36
Cc1ccccc1OCC(O)CN1CCCC1 (stereo not given),inactive: -1.62,inactive: 1.12,inactive: 1.28

# A second format for some results above:
Compound	TEAD-luciferase reporter activity (compound concentration: 200 nM)	TEAD-luciferase reporter activity (compound concentration: 10 uM)	TEAD-luciferase reporter activity (compound concentration: 2 uM)
Cc1ccccc1N1CCN(C2CCc3ccccc3C2)CC1 (stereo not given)	inactive: -0.578	inactive: -0.519	inactive: 0.171
CCCC(=O)NCCCCNC(=O)CCC	inactive: -0.977	inactive: 0.717	inactive: -0.813

# The list continues:

Compound,TEAD-luciferase reporter activity (compound concentration: 200 nM),TEAD-luciferase reporter activity (compound concentration: 10 uM),TEAD-luciferase reporter activity (compound concentration: 2 uM)
Nc1nc2c(ncn2[C@H]2CC(F)[C@@H](CO)O2)c(=O)[nH]1 (stereo not given in full) [lagociclovir valactate],inactive: -1.51,inactive: 0.619,inactive: 0.00719
CO[C@@H](Cc1ccc(NCCCc2ccc(OS(C)(=O)=O)cc2)cc1)C(=O)O,inactive: 0.951,inactive: -1.56,inactive: -1.22
CCCCCCCCCCCCCCCC[N+](C)(C)Cc1ccccc1,inactive: 0.0898,inactive: 1.08,inactive: 0.0977
CN1CCC(COc2cnc(-c3cccc(Cn4nc(-c5cccc(C#N)c5)ccc4=O)c3)nc2)CC1 [Tepotinib],inactive: -0.977,inactive: -1.37,inactive: -0.61
CN(C)C(=O)COC(=O)Cc1ccc(OC(=O)c2ccc(NC(=N)N)cc2)cc1 [Camostat mesylate],inactive: -0.941,inactive: -0.0062,inactive: -0.395
CN(C)C(=O)COC(=O)Cc1ccc(OC(=O)c2ccc(NC(=N)N)cc2)cc1,–,–,inactive: -0.906
CC(C)(O)CCOc1c(-c2ccc(S(C)(=O)=O)cc2)cnn(-c2ccc(F)c(F)c2)c1=O,inactive: -1.38,inactive: 0.883,inactive: -1.42
COc1ccc(N2CCN(C(=O)CCCc3c[nH]c4ccccc34)CC2)cc1,inactive: -2.28,inactive: 3.21,inactive: -1.61
CC(CN1c2ccccc2Sc2ccccc21)N(C)C (stereo not given) [Phenergan58-33-3],inactive: 0.617,active: 13.8,–
COc1ccc(Cl)cc1N1CCN(CCCNc2nccc(C(N)=O)n2)CC1,inactive: -0.8,inactive: -1.16,inactive: -0.823
CC(=O)NC[C@H]1CN(c2ccc3c(c2)CCN3C(=O)CO)C(=O)O1,inactive: -1.32,inactive: 0.0502,inactive: -1.62
CCCCOc1ccc(CC(=O)NO)cc1 [bufexamac],inactive: 0.208,inactive: 0.325,inactive: -1.31
c1cc2c3c(cccc3c1)C(NCCCCn1ccnc1)=N2,inactive: 0.0234,inactive: -0.452,inactive: 0.837
N=C(N)NCC1COc2ccccc2O1 (stereo not given),inactive: -3.39,inactive: 3.45,inactive: -0.0376
CCN(C/C=C\c1cc(Cl)c(C2C3CC4CC(C3)CC2C4)c(Cl)c1)C1CCCCC1 (stereo not given),inactive: -1.21,inactive: -1.13,inactive: 1.08
C=CC(=O)Nc1cc2c(Nc3ccc(F)c(Cl)c3)ncnc2cc1C#CC(C)(C)N1CCN(C)CC1,inactive: -1.27,inactive: -2.09,inactive: -1.63
COc1c(N2CC3(CC3)[C@](C)(N)C2)c(F)cc2c(=O)c(C(=O)O)cn([C@@H]3C[C@@H]3F)c12,inactive: -0.983,inactive: 1.69,–
CC(C)Oc1ccc(-c2nc(-c3cccc4c3CC[C@@H]4NCCO)no2)cc1C#N [Ozanimod],inactive: -0.133,inactive: 3.1,inactive: -0.349
COC[C@H](C)Oc1cc(Oc2cnc(C(=O)N3CCC3)cn2)cc(C(=O)Nc2ccc(C)cn2)c1,inactive: 0.0791,inactive: -1.41,inactive: -0.234
CSCC[C@H](NC=O)C(=O)N[C@@H](CC(=O)O)C(=O)NCC(=O)N[C@@H](CS)C(=O)N[C@@H](CCC(=O)O)C(=O)N[C@@H](CC(C)C)C(=O)O,inactive: -0.78,inactive: -0.79,inactive: -0.545
COc1cccc(C(=O)Nc2ccc(OCCN3CCOCC3)c(-c3ccnn3C)c2)c1 [temanogrel],inactive: 0.457,inactive: 1.31,inactive: 0.151
CN1Cc2cc(C3=NNC(=O)CC3)ccc2NC1=O,inactive: 0.061,inactive: -0.0119,inactive: -0.682
O=C(NO)c1ccc(O)c(O)c1 [Didox],inactive: -0.428,inactive: 0.545,inactive: -0.749
Cc1ccccc1C(=O)N1CCC2(CC1)Cc1ccccc1NC2=O,inactive: -2.55,–,–
NC(CCC(=O)O)C(=O)O (stereo not given),inactive: -0.515,inactive: 0.579,–
